Results as given in publication PMC3585328.
No constants are given. Whether binding was seen depends on the method and setting.

The chains behind the UniProt entries cited, without tags or fusion partners.
UniProt Q9LQX5: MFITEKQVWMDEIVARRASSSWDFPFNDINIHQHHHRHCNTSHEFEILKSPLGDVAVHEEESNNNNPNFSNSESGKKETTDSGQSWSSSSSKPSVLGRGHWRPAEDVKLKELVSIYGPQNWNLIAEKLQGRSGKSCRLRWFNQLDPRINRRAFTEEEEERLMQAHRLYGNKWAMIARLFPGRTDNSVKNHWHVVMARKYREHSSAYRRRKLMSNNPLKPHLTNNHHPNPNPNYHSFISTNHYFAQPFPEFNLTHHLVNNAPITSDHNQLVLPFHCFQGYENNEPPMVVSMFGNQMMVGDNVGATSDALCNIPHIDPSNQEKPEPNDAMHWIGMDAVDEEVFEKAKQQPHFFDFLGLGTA
UniProt Q9SEZ4: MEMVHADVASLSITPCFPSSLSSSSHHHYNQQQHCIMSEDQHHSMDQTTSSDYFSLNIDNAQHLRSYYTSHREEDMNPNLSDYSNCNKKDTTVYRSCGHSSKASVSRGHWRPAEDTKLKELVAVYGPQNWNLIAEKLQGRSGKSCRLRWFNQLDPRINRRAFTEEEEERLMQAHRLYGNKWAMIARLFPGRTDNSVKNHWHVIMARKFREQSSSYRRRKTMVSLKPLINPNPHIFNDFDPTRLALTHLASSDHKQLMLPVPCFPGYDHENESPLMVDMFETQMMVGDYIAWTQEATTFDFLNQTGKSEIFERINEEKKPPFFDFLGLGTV

Biological target: T1, AtAS2 (Arabidopsis) (UniProt O04479)
T1 sequence: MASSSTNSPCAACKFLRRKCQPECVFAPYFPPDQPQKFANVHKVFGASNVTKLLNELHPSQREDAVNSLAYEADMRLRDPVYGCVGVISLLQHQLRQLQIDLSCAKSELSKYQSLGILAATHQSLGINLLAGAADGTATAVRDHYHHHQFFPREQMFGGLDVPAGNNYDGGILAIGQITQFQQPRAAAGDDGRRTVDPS
Experiment: two-hybrid; Gal4-based system (Clontech); baits in pGBKT7, preys in pGADT7, co-transformed into yeast; selection on SD/-Trp-Leu-His-Ade medium, positive clones assayed for X-gal activity

## AtLOF1 (from UniProt Q9LQX5 1-359)
  binding: no binding

## AtLOF2 (from UniProt Q9SEZ4 1-330)
  binding: no binding
